# Experimental data reported in PMC7819943, “Rice protein-binding microarrays: a tool to detect cis-acting elements near promoter regions in rice”.
# The list shows a part of the results.
# Target: T1, OsSMF1 (Oryza sativa, UniProt Q6ZLB0 1-436)
# T1 sequence: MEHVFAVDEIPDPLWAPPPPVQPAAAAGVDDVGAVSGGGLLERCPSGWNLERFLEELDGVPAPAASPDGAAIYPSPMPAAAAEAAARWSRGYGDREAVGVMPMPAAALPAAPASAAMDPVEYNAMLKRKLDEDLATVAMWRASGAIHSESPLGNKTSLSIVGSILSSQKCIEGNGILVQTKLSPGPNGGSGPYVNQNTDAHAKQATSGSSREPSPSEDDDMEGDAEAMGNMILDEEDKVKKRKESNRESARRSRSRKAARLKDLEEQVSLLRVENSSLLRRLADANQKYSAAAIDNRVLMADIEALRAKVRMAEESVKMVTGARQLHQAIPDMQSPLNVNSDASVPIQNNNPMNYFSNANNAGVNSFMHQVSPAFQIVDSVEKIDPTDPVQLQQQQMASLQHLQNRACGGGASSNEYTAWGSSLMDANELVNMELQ
# Assay: protein-binding microarray (RPBM); PBS, 2% BSA, 51.3 ng/ul salmon testes DNA, 50 uM zinc acetate, 200 nM TF, 25 C, 1 h; high values mean tight binding
# Settings: protein: recombinant; tags: N-terminal polyhistidine and DsRed monomer fusion (pET32a); chain copies: 2; label: CyDye5-dUTP incorporated in the synthesized complementary strand; 3' TTTTT single-stranded linker to array surface; dsDNA, one strand shown
# Procedure, shortened: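 Binding signal is reported as fluorescence intensity per feature (arbitrary units) from an Axon 4000B scanner. Incubation used 200 nM of each Ni–NTA-purified, N-terminally polyhistidine- and DsRed-fused transcription factor from E. coli BL21-CodonPlus on a double-stranded custom Agilent array for 1 h at 25 °C, with 50 µM zinc acetate in the buffer, followed by washing.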
row,Sequence,binding signal
1,CATTCTTAATAGATAATTTGTTTTATATCCCTCACCGTACCGGAGTCACCTAGTGCAG,3320 fluorescence intensity (a.u.)
2,TAAAGCTTTTATGAATGAATAGCCTCGCTGGCAAGTGGGCCGGAGTCACCTAGTGCAG,3560 fluorescence intensity (a.u.)
3,CGCGGATCTTCCTCCACAAGCCTCGTCGCGCTTGAGCTCCCGGAGTCACCTAGTGCAG,28200 fluorescence intensity (a.u.)
4,GAGATGCCATCGGAATATTCTCCGTTTCCATCTCGTTCTGCGGAGTCACCTAGTGCAG,3240 fluorescence intensity (a.u.)
5,AGGATTTCATGTGTTTTGGTTAACATATTCATGTGTGTCTCGGAGTCACCTAGTGCAG,3500 fluorescence intensity (a.u.)
6,AGCTCAGCTGTCACGGTGTCACCTGTCAGCGCCCACAACTCGGAGTCACCTAGTGCAG,6140 fluorescence intensity (a.u.)
7,GAGGCCGGGGTCGGGGCGAGCGAGGCGAGAGGGGAGGAGGCGGAGTCACCTAGTGCAG,4480 fluorescence intensity (a.u.)
8,ACACTGTCTCCCTGACTGATCTGGCCGTTGGCACATCGTTCGGAGTCACCTAGTGCAG,3260 fluorescence intensity (a.u.)
9,CATGCATGATAAGATGGCTGTCATCAGTAGCACCTATGAGCGGAGTCACCTAGTGCAG,3660 fluorescence intensity (a.u.)
10,GGCAACGCACCACGCTGCACGCGTCCGTGGTCGCCGCGAACGGAGTCACCTAGTGCAG,3150 fluorescence intensity (a.u.)
11,CTGACCATGGTCAGAACGTGGCACCGAAGCTCACCAAGTTCGGAGTCACCTAGTGCAG,3280 fluorescence intensity (a.u.)
12,TCTGCTACAGTATAACAGTGCCCTTTCCCCACATCAGCCGCGGAGTCACCTAGTGCAG,4600 fluorescence intensity (a.u.)
13,CCACTGTCCACATGCCCACATCATCTTCAACTGGGCCTACCGGAGTCACCTAGTGCAG,4200 fluorescence intensity (a.u.)
14,AGGTATGCACCTACGTACGTGGGTACGTATGCTTCCCCTCCGGAGTCACCTAGTGCAG,4130 fluorescence intensity (a.u.)
15,GTCAAGGGGTCTCAAGTCTCAACTCCAAAAGCCAATGGAACGGAGTCACCTAGTGCAG,32400 fluorescence intensity (a.u.)
16,GGGAAGGGACGCGTGGCGGCGTCCGTTGGCGGGACCAGATCGGAGTCACCTAGTGCAG,4870 fluorescence intensity (a.u.)
17,ACGCGGCCACCGTGGACGCCGCCGCACGTACGTGGGCGTGCGGAGTCACCTAGTGCAG,5080 fluorescence intensity (a.u.)
18,CGCCGCCTGCCGGCCACGCCTCCAGCCGCTGCTGCCGCTGCGGAGTCACCTAGTGCAG,3590 fluorescence intensity (a.u.)
19,CAGGATGAATGAAGCTCCTGTTGTTCGAGACGAGTGGCCTCGGAGTCACCTAGTGCAG,4290 fluorescence intensity (a.u.)
20,ATTACATACTAATTACATATGTAAGTGAGGTGTAACTACTCGGAGTCACCTAGTGCAG,4160 fluorescence intensity (a.u.)
21,TTTCAACGAGAAGTCAAGATTCAAACTATTTCCTGTTCTCCGGAGTCACCTAGTGCAG,3620 fluorescence intensity (a.u.)

# Part of the list above, bar-delimited.
row | Sequence | binding signal
9 | CATGCATGATAAGATGGCTGTCATCAGTAGCACCTATGAGCGGAGTCACCTAGTGCAG | 3660 fluorescence intensity (a.u.)
10 | GGCAACGCACCACGCTGCACGCGTCCGTGGTCGCCGCGAACGGAGTCACCTAGTGCAG | 3150 fluorescence intensity (a.u.)
11 | CTGACCATGGTCAGAACGTGGCACCGAAGCTCACCAAGTTCGGAGTCACCTAGTGCAG | 3280 fluorescence intensity (a.u.)

# (cont.)

row,Sequence,binding signal
1,ATCTCCATTGCCATGCCATGTCATGCCAAATGCCCGAGTGCGGAGTCACCTAGTGCAG,10200 fluorescence intensity (a.u.)
2,TTATCGCTATCGGCTGGTATCAGCATCGGCTATTATCGGCCGGAGTCACCTAGTGCAG,3840 fluorescence intensity (a.u.)
3,AGCCTTGCTCTTATGACGTAATGTCAGAGTGATATGAGTGCGGAGTCACCTAGTGCAG,6910 fluorescence intensity (a.u.)
4,CGTTTGGGCCACGTATAGTATCTTCTCGGGCCTAACCGGACGGAGTCACCTAGTGCAG,5970 fluorescence intensity (a.u.)
5,TGGCAACGGCAAGAGGATGATGTAGGCGTCGACGGCGGAGCGGAGTCACCTAGTGCAG,3280 fluorescence intensity (a.u.)
6,GAGAATTTCACACGTCAAGCATTCTACACAACGCTAGTGTCGGAGTCACCTAGTGCAG,4820 fluorescence intensity (a.u.)
7,ATTTCGGCCCAGTACACATTCTCAATTATTAGGAAGCCCACGGAGTCACCTAGTGCAG,27200 fluorescence intensity (a.u.)
8,TCTCACCTTGTTACATGTGTGTGTCGTGCAGGTAGTGAGTCGGAGTCACCTAGTGCAG,3140 fluorescence intensity (a.u.)
9,GTCCTTTTCTAATGATTCACCTTCACTTGATCCATCTGAGCGGAGTCACCTAGTGCAG,3980 fluorescence intensity (a.u.)
10,GTGTGGGGATAAACAGAGGTAGAGACATGTGTCAGATGACCGGAGTCACCTAGTGCAG,3150 fluorescence intensity (a.u.)
11,CTCGCGCTTGCGCCTCTGGATCCGCCGCGCGTGTCCACCTCGGAGTCACCTAGTGCAG,3600 fluorescence intensity (a.u.)
12,TAGTACTATGAATCTGGACAGATAATGTCACATCCTATACCGGAGTCACCTAGTGCAG,3720 fluorescence intensity (a.u.)
13,ACTGACTGCTACGTCTCTGTCTACGTATACCCCAGCCTCCCGGAGTCACCTAGTGCAG,3680 fluorescence intensity (a.u.)
14,CCTAAATAAGCTAGCAAAATAGCCAATGCCAGCCAATATTCGGAGTCACCTAGTGCAG,28300 fluorescence intensity (a.u.)
15,CCGACGGCGAACCTGACTCACCGGCGGCCGCGAGGAGGCGCGGAGTCACCTAGTGCAG,6180 fluorescence intensity (a.u.)
16,CCGCTGCCTTTGAGTGAGTCGTCGTCTTGAGTCACGACGACGGAGTCACCTAGTGCAG,5620 fluorescence intensity (a.u.)
17,CTCACTTTCCTCGTTTTCCGTACACATGCTTACCAAATTGCGGAGTCACCTAGTGCAG,4950 fluorescence intensity (a.u.)
18,GGGGTGAGGATGAAGATGATGATGATGATGACCCTGAGGCCGGAGTCACCTAGTGCAG,3180 fluorescence intensity (a.u.)
19,TCCAGCGAGAGGCGTACGTGAGTGCGTGCGTACGTGCGGGCGGAGTCACCTAGTGCAG,5230 fluorescence intensity (a.u.)
20,TGCATGTGCAAACCTGGGTTTGTACACGTACTGACCACAGCGGAGTCACCTAGTGCAG,5380 fluorescence intensity (a.u.)
21,TGTGCAGGTCCATCTAGTGTGTGCTGGAGGGAGGGAACGGCGGAGTCACCTAGTGCAG,3360 fluorescence intensity (a.u.)
